Assay results: PMC6118199
No constants are given. Whether binding was seen depends on the method and setting.

Molecular target: PaTonB-96 (C-terminal 96 residues of TonB protein from Pseudomonas aeruginosa) (Pseudomonas aeruginosa) (UniProt Q51368)
Experiment: NMR 15N relaxation (rotational correlation time from T1/T2); one mM PaTonB-96 in 20 mM sodium phosphate buffer pH 6.0, 10% D2O, 25 °C, 850 MHz; tau_c 6.9 ns from T1/T2 (model-free), 7.2 ns from MD simulation scaled to the relaxation data, compared with literature values of monomeric proteins of similar weight; both purified

B1: PaTonB-96 (C-terminal 96 residues of TonB protein from Pseudomonas aeruginosa) (domain or fragment, UniProt Q51368 247-342)
chain: SHMGSLNDSDIKPLRMDPPVYPRMAQARGIEGRVKVLFTITSDGRIDDIQVLESVPSRMFDREVRQAMAKWRFEPRVSGGKIVARQATKMFFFKIEKRR
  binding: no binding (tested: one mM)
